# At least one compound was matched to its structure with a doubt left.
# Tested on: IPF patient lung fibroblasts
# Assay: αSMA imaging, TGFβ-induced αSMA expression
# Assay type: cell-based, human
# Conditions: TGFβ 5 ng/mL, 48 hours
# Method: αSMA imaging. Primary cells (passage 3-5) were grown on Cell carrier Ultra, collagen Type 1 coated 96-well plates (Perkin Elmer, #6055700) at a density of 25,000 cells/well. Once the cells adhere, they were starved in serum free media for 24 hours followed by addition of treatments, i.e., 5 ng/mL TGFβ (Biolegend #580702)±inhibitors. Cells were pre-treated with inhibitors for 30 minutes prior to the addition of TGFβ stimulation. 48 hours post treatment, the cells were fixed in 4% methanol free paraformaldehyde (ThermoFisher Scientific #28908) for 20 minutes at room temperature and incubated with anti-alpha smooth muscle Actin antibody (Abcam #ab7817) at 1:4000 overnight at 4° C. Following primary antibody incubation, cells were incubated with Goat anti-mouse secondary antibody (ThermoFisher Scientific #A32723) at 1:500 and Hoechst (ThermoFisher Scientific #62249) at 1:1000 for one hour at RT. The fixed and stained cells were images for immunofluorescence on Perkin Elmer's Opera Phenix high content Imager.
structure (smiles),measurement,value
"Cc1cccc(-c2[nH]c(C(C)(C)C)nc2-c2ccc3nccnc3c2)n1 [SB-525334, reference compound]",IC50 of TGFβ-mediated αSMA induction,56 z 22 nM
